The test addresses dual-specific (d)AKAP1 (UniProt O88884). The test can be described thus: split reporter; NanoBiT luciferase complementation in live COS-1 and HEK293 cells; 3 h Opti-MEM to deplete basal cAMP; 37°C; normalised to maximum complementation (HiBiT peptide) and to the RIβ^WT-LgBiT, RIβ^WT-SmBiT condition. (In general: With HiBiT, luminescence reflects the tagged protein that the partner subunit can reach.)

By UniProt entry, the sequences of proteins in these tests, tags left out. Where a name states a change or a piece, a line headed by the entry shows the natural chain unless it says otherwise.
UniProt O88884: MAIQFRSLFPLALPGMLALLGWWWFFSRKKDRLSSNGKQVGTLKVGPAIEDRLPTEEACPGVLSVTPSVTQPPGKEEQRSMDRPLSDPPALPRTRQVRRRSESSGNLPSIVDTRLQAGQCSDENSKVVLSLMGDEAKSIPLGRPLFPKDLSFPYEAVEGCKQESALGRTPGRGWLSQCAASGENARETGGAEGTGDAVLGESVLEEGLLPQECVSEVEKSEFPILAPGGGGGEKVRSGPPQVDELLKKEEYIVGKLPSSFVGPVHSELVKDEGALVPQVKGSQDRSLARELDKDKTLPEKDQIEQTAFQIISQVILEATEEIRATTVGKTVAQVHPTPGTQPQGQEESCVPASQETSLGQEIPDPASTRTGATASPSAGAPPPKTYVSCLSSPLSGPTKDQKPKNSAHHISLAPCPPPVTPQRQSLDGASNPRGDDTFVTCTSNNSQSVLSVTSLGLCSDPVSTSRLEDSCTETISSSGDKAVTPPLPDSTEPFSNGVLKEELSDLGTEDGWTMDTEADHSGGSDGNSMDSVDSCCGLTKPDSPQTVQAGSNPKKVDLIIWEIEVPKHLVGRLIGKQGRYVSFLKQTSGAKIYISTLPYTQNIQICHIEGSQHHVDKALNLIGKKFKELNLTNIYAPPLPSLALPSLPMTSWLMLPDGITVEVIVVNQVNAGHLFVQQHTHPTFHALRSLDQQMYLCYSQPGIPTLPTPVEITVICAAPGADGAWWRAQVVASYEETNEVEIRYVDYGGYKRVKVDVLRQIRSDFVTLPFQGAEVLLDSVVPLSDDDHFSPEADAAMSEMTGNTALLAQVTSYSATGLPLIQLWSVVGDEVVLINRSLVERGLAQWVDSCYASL
UniProt P31321: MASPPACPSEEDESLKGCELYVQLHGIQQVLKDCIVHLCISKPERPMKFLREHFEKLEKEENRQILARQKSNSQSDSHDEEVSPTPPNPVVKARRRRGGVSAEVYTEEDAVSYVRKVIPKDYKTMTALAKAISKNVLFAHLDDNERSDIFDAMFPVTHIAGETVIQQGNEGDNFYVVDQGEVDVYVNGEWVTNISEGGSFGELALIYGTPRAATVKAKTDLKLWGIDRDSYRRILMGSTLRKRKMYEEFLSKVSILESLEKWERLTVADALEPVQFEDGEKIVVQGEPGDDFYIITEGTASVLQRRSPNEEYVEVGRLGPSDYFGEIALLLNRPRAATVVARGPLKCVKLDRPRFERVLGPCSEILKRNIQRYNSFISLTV

In PMC12369641 one finds binding data, which are given here for one substance.

These are yes or no findings as the source states them, for the method shown. Binding seen in cells or lysates may run through a third protein. Binding can be weak; no strength is given.

Regarding “RIβ^WT-SmBiT (from UniProt P31321 1-381)”, the binding entry is given as “binds”.
